{"source": "paper doi:10.1101/2021.09.13.460056", "binders": {"B1": {"name": "XAC1 (protein, UniProt Q57Y88 1-117)", "chain": "MSKAPSQPAKKWMSARTLAKSEDATNRKSNTAAPASQPSQQPASVMHERPTPPPPAPVQLPQSVFFERQEAVDTLSNLYRNAQSVKKIETGPAAFEARDISKVHEELMDCLRPAAAA"}, "B2": {"name": "MKT1 (protein, UniProt Q587E3 1-735)", "chain": "MYPRHDDVSLFQRFVNDHKLEEKGLPLYQLAQLEGTDQVMLGVDGTKIIDMITQAVREREKMAIYTYTTPYTVYEKINEFRTMFQSIKNCTPVFVFNGIQYSPDSAEEFGREKNVVPSEVAALTGTDSSRLSNTTNVRFAEIHKKTANRFVVEEDVEGQIIRIFRSEFKNTIRAPYLAWAQLSSFRHCNHRHISEVYGCLELLAFPGIDRVVTNINPTRGTFDVVYKARVLEAARLSEEDLSSLILVESRSRVMRTVTLKFSSLEDMIKKVVRYKGSTIGASFAQQLHEEAIRASEANRMRASNQRGAAFRNLSAFASPVLTLTPPHCLPLHFLYGIPGFPHADAESFVGLPLPPVLYYIMSAGLLSPSLFAAVSQETVVDDWPLVDSIKYRDVAETVLPLRVQTIYQLAWTMSRGLGSISWFRRYNVLPARVSKLHVPPAIQLDGWALHSVTVPRGLHLVDVMEFAHLACSVDQVIYNTMEETYAAILLQSLDLLGYLTHETQDLHEEGQSSEPSTFGRALQLCSVPTLSEYTVLLIELARTNAISTEPFRITTEEVSPRDTPRDIVFASRVLSIIPLNVSGPWTAPIDAELAAFSMLSRMISRSIRQLLEAITTLMFSKGRTHVPLHRIGEIQRLLPFSTPVEFGCGVLVEYMLMKDKCTLKDLEEAFPECTYLRHDLATLFYFWDLAVQVLQRIETKENFCVDQHCLSSANERMKRAQKNLNILTGVRETYY"}, "B3": {"name": "PBP1 (protein, UniProt Q57UZ7 1-550)", "chain": "MEGSHSSNMERLEYLYLNLVGQVVQVRLVDDMCVEGLFVACTDVDAETDAGIMICCTRNLASAKRSPLSPSCVNFTDDLFIPYQSIVMIEVQNAKIRTETPGRPDTGRADFSATKFDWADDGVSELLESEPHQTGTWNQFEANEKSFGVKTTYKEEFYTTRLDHSKITEEQRAQADRLAREIESSSTRGIAHRMEREECLHDDEGLDEGQLYSDVHRPQEKKPPYVPPSTGGRKLVNEPPPVPAAAAPATAPTTAPAAAPAPAAAPPAAAPAAAAPPPPPAATSMADDGSMRHKRMNEDPHHMQYDANQTAAGFNPAAAPYTPMKPGAAVPVVDFLASLADAISNNDMCYDCEPHWPGMCNLFYDQDDSSYSQQNYEAAAMPPSHSMNMHMYVNSQPNIPNAHRGYQGPLGRVPHNQSMPMHHMQGQGFHHEMHHHQAFHGMGNYSSQHHNPPIQEYAPHKGQQGVVSRPGMRQGKGGGASRVEPQQPVSANTASSPPPVPTVDSAPNEVKPPAKLQRGRGMAAFTKGDMDGDSGATTNATGGPKKRVGK"}, "B4": {"name": "LSM12 (protein, UniProt Q38E83 1-190)", "chain": "MPVCNNDSQLIGLGVSVTLADDTTVNGTVYTYNSSEGLLVLFQGFSGSNPNVKIIRTPFIKEVTALRDNEEKLPPQLEAKARLPSMQAARDRSLFKHASSQLRNAKDKRNQLLQTDDQKTPIAALDTLIKLERIYPDIHWDKDAGVIRFNQDVVVKGKPDWTSPAVVIAEGAGDISRSLMERVQKTLSKK"}}, "note": "Results are given in words; binding and its absence hold for the method and conditions named. Binding seen in cells or lysates may run through a third protein. A yes stands for co-enrichment or nearness to the bait. Other partners may have been found. A no says only that the protein was not detected with the bait.", "data": [{"molecular_target": "DRBD18 with a C-terminal TAP (tandem affinity purification) tag (Trypanosoma brucei)", "test": "affinity purification with mass spectrometry", "values": [{"binder": "B1", "binding": "no binding"}, {"binder": "B2", "binding": "no binding"}, {"binder": "B3", "binding": "no binding"}, {"binder": "B4", "binding": "no binding"}]}]}
